The list shows a part of the results. Most values lie at the level of the controls, where differences are scatter.
compound: CN[C@@H]1C[C@H]2O[C@@](C)([C@@H]1OC)n1c3ccccc3c3c4c(c5c6ccccc6n2c5c31)C(=O)NC4 [staurosporine]; test: log2 fold change of tryptic peptide abundance, ligand vs vehicle (limited proteolysis) (log2 ratio); higher = more trypsin-susceptible (destabilized); settings: ligand concentration: 20 uM; sample: mouse liver crude lysate; replicate design: treated separately

The chains behind the UniProt entries cited, without tags or fusion partners. Where a name states a change or a piece, a line headed by the entry shows the natural chain unless it says otherwise.
UniProt Q8BS40: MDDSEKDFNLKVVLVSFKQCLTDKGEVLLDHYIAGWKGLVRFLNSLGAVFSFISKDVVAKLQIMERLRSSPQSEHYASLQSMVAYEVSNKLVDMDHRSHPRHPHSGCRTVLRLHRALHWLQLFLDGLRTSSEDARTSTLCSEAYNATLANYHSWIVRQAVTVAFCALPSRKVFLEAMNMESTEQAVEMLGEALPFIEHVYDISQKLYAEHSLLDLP
UniProt Q8BU00: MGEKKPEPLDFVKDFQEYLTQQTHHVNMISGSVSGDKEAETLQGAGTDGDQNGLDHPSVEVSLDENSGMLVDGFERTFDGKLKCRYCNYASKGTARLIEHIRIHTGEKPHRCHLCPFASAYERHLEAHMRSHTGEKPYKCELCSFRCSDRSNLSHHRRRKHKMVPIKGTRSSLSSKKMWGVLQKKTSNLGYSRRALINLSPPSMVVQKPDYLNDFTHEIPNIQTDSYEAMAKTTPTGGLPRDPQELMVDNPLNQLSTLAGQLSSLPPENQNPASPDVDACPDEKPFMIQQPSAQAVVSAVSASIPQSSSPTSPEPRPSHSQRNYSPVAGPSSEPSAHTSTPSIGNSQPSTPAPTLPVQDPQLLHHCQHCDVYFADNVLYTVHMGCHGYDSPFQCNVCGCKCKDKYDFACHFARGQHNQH
UniProt Q8BNI4: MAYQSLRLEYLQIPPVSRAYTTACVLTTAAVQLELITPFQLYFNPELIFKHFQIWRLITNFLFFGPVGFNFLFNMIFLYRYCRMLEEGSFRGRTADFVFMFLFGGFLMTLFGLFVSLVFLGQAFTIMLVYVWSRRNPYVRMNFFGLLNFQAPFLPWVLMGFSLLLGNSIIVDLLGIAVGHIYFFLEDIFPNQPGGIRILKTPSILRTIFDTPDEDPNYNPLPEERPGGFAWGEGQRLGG
UniProt Q8BMZ5: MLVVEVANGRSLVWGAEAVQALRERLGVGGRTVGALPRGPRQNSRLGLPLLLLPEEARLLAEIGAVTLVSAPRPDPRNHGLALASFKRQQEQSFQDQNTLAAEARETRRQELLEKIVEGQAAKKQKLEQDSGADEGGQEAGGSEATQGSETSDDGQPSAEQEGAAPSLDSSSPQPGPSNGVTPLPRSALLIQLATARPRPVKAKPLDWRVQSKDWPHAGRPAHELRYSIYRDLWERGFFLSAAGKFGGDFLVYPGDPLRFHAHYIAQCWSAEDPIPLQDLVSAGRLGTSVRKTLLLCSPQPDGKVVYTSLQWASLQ
UniProt Q8BMB0: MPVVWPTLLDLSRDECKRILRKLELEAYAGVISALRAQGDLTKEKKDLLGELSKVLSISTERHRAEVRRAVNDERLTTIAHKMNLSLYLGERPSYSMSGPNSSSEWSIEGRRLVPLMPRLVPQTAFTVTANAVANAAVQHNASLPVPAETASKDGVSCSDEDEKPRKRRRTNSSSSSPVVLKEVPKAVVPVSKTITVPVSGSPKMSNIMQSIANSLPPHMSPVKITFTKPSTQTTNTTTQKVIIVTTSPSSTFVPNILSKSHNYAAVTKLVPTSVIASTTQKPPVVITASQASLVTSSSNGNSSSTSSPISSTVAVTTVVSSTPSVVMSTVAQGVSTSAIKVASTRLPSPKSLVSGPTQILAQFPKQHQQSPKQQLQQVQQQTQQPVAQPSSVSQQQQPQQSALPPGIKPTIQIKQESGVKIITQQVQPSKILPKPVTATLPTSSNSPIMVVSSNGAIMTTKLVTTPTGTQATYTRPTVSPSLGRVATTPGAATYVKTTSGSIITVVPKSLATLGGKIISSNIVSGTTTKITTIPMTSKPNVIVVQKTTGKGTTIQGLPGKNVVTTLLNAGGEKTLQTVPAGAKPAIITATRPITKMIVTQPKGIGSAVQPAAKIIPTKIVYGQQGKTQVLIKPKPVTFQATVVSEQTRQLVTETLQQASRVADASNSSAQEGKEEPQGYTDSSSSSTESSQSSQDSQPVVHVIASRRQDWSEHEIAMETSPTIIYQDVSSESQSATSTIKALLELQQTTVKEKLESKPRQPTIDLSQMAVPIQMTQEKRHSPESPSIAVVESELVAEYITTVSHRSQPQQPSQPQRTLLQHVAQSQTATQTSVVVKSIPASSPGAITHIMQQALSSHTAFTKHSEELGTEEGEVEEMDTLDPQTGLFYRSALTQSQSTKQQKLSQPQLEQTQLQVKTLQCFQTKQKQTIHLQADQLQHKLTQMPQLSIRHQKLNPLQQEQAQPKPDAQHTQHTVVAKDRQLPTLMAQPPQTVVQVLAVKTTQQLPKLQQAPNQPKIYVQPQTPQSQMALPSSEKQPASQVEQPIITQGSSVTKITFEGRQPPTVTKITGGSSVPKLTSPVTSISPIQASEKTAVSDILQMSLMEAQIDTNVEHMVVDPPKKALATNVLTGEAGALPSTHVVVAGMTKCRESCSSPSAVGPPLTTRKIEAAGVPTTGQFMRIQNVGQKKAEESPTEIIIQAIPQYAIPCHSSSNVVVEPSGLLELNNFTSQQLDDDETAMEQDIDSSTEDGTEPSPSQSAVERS
UniProt Q8BLY1: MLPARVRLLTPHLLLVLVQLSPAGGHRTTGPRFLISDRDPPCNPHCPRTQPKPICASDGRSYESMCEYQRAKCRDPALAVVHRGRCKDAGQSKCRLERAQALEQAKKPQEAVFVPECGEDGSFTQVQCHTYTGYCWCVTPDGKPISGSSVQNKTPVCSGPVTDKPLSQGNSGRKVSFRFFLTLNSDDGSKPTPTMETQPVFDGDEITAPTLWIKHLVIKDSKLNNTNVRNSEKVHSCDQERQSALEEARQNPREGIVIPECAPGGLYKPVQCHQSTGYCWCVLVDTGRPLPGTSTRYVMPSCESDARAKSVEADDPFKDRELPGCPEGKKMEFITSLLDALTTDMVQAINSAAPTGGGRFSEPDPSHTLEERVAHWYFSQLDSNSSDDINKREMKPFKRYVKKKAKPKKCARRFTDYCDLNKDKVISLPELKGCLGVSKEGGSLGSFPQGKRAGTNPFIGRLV
UniProt Q8BJM5: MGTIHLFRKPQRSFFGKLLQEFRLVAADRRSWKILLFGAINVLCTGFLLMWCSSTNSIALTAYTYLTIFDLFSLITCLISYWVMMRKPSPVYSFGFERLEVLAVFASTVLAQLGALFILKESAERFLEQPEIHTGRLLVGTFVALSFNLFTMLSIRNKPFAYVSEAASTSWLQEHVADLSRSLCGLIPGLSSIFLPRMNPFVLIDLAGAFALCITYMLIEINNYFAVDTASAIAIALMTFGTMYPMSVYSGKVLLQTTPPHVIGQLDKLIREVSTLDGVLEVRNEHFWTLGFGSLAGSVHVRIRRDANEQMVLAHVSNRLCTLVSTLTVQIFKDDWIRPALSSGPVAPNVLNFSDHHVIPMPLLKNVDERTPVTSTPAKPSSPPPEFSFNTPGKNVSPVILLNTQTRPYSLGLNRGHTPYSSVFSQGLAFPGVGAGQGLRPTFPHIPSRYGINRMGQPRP
UniProt Q8BIJ6: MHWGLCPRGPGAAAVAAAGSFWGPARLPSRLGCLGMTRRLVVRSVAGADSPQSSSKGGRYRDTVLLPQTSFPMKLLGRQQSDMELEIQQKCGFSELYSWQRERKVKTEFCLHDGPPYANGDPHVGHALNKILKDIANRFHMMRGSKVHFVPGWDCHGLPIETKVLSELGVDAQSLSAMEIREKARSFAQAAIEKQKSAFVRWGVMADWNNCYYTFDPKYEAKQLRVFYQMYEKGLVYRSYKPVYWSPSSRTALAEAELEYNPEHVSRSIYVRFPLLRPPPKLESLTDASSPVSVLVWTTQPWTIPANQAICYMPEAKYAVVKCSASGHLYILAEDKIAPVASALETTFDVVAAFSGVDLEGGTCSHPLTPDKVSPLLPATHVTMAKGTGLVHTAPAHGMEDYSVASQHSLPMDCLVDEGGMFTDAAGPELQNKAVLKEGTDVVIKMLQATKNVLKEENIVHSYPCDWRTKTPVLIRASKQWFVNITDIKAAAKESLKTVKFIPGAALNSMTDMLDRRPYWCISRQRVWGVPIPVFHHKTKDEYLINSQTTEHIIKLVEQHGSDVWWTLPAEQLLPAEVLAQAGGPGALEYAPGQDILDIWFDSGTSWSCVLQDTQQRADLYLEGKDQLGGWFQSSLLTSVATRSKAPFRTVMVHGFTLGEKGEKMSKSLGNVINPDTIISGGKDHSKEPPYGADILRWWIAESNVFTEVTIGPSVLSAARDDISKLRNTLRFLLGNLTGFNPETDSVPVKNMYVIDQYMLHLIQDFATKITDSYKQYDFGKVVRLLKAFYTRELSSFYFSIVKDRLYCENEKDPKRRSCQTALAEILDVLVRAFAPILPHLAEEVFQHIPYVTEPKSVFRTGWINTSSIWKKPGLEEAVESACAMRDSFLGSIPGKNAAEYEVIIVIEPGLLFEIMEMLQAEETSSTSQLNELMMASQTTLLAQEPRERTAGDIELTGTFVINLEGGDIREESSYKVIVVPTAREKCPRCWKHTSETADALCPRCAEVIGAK
UniProt Q8BK72, whole entry: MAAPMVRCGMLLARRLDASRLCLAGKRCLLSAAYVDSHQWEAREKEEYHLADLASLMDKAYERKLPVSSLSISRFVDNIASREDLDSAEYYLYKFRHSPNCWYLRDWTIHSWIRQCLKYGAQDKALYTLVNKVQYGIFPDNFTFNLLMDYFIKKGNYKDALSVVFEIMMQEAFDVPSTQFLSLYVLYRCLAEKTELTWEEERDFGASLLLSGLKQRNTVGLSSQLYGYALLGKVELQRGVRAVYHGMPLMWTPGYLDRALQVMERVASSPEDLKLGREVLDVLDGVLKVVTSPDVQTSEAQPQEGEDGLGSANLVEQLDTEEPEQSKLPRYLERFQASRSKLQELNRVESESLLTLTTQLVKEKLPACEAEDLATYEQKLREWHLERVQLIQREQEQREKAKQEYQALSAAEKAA
UniProt Q8BQ47: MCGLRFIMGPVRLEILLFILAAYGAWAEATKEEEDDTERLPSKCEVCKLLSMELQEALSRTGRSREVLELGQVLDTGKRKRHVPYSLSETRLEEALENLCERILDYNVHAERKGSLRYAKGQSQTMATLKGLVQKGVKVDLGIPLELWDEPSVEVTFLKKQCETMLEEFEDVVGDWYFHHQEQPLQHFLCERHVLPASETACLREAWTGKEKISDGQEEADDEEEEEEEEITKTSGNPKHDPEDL
UniProt Q8BKE6: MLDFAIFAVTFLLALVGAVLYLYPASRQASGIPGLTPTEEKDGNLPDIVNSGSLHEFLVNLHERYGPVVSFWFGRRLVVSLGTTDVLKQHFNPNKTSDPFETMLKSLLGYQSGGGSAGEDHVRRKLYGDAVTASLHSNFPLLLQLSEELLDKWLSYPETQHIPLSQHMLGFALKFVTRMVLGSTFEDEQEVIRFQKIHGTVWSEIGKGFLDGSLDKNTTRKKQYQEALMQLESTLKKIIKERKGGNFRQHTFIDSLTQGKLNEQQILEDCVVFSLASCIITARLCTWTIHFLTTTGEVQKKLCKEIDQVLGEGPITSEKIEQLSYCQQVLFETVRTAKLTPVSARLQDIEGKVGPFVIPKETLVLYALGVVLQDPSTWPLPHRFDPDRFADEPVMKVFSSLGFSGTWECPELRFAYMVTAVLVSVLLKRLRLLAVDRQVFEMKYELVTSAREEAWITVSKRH
UniProt Q8BUY9, whole entry: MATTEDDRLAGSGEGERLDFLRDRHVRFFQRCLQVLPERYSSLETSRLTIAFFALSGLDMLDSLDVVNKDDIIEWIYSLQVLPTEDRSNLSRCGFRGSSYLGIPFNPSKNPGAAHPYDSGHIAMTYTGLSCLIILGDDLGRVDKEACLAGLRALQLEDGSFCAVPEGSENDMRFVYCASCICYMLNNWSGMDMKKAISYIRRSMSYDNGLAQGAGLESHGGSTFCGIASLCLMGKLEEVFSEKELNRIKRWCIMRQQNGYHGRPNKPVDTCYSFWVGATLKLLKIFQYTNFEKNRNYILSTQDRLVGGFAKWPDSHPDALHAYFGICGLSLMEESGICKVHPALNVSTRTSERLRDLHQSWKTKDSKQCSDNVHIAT

Target | log2 fold change
UniProt Q8BS40 (peptide sequence: LVDMDHR, peptide start residue: 91) | 0.0286
UniProt Q8BU00 (peptide sequence: MWGVLQK, peptide start residue: 178) | -0.363
UniProt Q8BNI4 (peptide sequence: PGGFAWGEGQR, peptide start residue: 226) | 0.0924
UniProt Q8BMZ5 (peptide sequence: DWPHAGRPAHELR, peptide start residue: 214) | -0.246
UniProt Q8BMB0 (peptide sequence: TITVPVSGSPK, peptide start residue: 194) | 0.295
UniProt Q8BLY1 (peptide sequence: EMKPFKR, peptide start residue: 393) | -0.374
UniProt Q8BJM5 (peptide sequence: GTIHLFR, peptide start residue: 2) | 0.153
UniProt Q8BIJ6 (peptide sequence: SFAQAAIEK, peptide start residue: 186) | -0.35
UniProt Q8BK72 (peptide sequence: EKLPACEAEDLATYEQK, peptide start residue: 363) | -0.421
UniProt Q8BQ47 (peptide sequence: GQSQTMATLK, peptide start residue: 121) | -0.378
UniProt Q8BKE6 (peptide sequence: SLLGYQSGGGSAGEDHVRR, peptide start residue: 106) | -0.364
UniProt Q8BUY9 (peptide sequence: NYILSTQDR, peptide start residue: 296) | 0.0817
